Data reported in article PMC6908725.
Results are given in words; binding and its absence hold for the method and conditions named. Binding seen in cells or lysates may run through a third protein. Some binding calls cover weakened binding; strength is not graded here.

Chains of the proteins cited; added tags and fusions are not shown.
UniProt P37231: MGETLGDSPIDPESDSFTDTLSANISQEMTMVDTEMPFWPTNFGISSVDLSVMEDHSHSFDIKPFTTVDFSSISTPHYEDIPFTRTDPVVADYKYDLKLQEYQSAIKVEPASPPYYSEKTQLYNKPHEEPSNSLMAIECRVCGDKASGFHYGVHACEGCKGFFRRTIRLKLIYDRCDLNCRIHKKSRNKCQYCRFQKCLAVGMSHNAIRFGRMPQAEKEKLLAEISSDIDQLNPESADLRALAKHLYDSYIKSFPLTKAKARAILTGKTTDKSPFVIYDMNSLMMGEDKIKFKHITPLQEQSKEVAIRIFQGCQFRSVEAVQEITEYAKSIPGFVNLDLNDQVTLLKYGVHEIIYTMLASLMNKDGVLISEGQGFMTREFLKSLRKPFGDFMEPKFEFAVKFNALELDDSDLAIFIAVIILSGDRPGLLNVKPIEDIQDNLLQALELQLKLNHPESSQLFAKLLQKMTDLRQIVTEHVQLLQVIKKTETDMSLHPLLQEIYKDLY
UniProt Q01469: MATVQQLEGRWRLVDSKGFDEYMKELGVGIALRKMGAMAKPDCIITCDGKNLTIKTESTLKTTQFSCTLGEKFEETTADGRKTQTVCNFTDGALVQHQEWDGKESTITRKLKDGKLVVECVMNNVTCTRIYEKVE

Biological target: Peroxisome proliferator-activated receptor gamma (human (endogenous in PC3)) (UniProt P37231)
Experiment: co-IP; PPARγ immunoprecipitated with mouse anti-PPARγ and Protein G agarose from lysates of PC3 vector control cells and PC3 cells overexpressing FASN or MAGL (20 mM Tris-HCl, 150 mM NaCl, 1 mM EDTA, 1% NP-40, pH 7.4; diluted 1:2 in PBS; overnight at 4 °C); western blot for FABP5 and PPARγ

binding: binds
Substance: fatty acid binding protein 5 (from UniProt Q01469 1-135)
